Reference: paper PMC3514159
Results are given in words; binding and its absence hold for the method and conditions named. In cells and extracts the contact can be indirect. Some binding calls cover weakened binding; strength is not graded here.

Chains of the proteins cited; added tags and fusions are not shown.
UniProt Q9UKS7: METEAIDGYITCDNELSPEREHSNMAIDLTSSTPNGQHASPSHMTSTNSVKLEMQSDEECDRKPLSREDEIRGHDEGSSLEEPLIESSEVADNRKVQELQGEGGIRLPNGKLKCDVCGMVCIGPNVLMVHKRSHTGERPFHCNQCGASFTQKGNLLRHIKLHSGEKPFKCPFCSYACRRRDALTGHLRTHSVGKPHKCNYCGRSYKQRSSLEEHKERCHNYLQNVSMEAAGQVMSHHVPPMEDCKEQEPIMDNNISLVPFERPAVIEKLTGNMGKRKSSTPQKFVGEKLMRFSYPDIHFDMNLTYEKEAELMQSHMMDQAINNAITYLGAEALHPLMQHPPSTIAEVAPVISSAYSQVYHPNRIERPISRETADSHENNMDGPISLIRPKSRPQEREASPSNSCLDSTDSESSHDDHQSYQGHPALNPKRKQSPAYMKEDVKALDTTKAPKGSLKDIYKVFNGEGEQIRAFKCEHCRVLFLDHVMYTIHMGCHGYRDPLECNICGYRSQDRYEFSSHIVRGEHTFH
UniProt P31249: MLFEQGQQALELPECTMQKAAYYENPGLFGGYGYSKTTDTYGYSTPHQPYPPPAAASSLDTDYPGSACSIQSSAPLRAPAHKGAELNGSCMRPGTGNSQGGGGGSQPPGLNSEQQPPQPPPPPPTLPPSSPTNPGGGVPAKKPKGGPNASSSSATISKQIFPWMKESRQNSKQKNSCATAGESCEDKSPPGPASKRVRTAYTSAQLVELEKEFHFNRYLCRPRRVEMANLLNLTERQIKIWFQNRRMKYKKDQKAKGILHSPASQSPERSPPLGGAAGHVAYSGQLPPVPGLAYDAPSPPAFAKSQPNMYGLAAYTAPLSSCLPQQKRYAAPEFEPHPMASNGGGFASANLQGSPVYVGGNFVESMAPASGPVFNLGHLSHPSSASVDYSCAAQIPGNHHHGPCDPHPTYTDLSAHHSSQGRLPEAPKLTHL
UniProt P09022: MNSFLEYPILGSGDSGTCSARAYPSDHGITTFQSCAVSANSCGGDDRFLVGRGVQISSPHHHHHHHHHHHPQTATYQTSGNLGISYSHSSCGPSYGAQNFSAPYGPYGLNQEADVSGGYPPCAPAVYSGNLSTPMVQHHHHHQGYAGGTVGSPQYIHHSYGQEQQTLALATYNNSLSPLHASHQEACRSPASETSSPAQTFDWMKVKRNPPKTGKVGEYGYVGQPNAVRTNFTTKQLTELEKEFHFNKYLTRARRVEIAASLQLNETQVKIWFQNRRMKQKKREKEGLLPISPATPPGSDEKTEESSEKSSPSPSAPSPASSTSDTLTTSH

Columns and labels:
Assay in all cases: pull-down; GST-hORF and FLAG-Hoxa1 co-expressed in COS7 or HEK293T; cleared lysate (Tris-HCl pH7.5 20mM, NaCl 120mM, EDTA 0.5mM, NP40 0.5%, glycerol 10%) overnight on glutathione-agarose beads, 3 washes; anti-FLAG western blot
[1] = target: T1, TNF receptor-associated factor 1 (human) (UniProt Q13077)
T1 sequence: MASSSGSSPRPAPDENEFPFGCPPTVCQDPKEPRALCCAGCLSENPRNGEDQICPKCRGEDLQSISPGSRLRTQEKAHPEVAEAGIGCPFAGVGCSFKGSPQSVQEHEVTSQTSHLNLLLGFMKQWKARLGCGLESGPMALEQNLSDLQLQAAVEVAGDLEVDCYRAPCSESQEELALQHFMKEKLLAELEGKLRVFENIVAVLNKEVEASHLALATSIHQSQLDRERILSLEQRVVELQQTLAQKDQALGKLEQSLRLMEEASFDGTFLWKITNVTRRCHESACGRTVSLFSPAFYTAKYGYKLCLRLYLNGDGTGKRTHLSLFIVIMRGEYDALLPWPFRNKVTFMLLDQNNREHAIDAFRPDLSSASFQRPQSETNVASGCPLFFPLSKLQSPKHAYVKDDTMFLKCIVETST

[2] = target: T2, keratin associated protein 26-1 (human) (UniProt Q6PEX3)
T2 sequence: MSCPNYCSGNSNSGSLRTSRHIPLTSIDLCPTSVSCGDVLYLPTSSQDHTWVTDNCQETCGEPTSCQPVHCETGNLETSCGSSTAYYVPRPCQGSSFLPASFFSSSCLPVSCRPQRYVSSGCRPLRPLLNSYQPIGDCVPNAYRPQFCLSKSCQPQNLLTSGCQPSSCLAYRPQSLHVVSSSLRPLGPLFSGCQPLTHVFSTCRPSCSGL

[3] = target: IKAROS family zinc finger 2 (human) (UniProt Q9UKS7)
[4] = target: homeobox D3 (human) (UniProt P31249)
[5] = target: T3, chromosome 1 open reading frame 94 (human) (UniProt Q6P1W5)
T3 sequence: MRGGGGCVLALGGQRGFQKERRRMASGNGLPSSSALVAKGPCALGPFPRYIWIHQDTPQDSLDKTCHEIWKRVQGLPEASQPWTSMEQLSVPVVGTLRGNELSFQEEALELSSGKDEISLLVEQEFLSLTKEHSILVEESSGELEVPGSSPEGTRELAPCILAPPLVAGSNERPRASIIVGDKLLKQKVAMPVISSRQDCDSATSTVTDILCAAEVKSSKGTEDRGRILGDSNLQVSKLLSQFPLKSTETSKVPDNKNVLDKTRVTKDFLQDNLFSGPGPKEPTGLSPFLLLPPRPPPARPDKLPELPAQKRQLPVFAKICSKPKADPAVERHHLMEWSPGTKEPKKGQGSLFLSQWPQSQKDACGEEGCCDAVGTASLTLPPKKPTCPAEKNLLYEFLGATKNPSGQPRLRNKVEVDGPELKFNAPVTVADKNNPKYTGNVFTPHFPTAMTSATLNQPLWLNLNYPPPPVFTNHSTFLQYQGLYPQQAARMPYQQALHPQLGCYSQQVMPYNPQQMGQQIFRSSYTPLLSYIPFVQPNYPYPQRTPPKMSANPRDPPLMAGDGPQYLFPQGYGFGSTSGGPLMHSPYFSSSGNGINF

[6] = target: T4, thyroid hormone receptor interactor 6 (human) (UniProt Q15654)
T4 sequence: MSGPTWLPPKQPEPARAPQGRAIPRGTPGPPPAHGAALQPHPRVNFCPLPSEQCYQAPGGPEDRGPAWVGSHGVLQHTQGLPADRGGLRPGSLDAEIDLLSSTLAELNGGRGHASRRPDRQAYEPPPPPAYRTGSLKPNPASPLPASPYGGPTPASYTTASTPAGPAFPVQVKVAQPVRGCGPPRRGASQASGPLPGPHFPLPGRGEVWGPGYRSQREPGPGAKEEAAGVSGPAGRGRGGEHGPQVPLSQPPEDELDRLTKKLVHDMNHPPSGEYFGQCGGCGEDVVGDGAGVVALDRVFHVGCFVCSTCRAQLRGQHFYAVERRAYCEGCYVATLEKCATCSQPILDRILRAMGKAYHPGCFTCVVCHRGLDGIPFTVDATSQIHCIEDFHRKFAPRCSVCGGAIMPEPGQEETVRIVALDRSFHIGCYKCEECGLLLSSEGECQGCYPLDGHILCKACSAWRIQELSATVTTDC

- binding [1]: binds
- binding [2]: binds
- binding [3]: binds
- binding [4]: binds
- binding [5]: binds
- binding [6]: binds
Substance: FLAG-Hoxa1 (from UniProt P09022 1-331)
